# Assay results: publication PMC13043812
# Sequences of proteins named here, by UniProt entry; tags and fusion partners are left off. A change or cut given only in a name is not applied to a line headed by its entry.
# UniProt P96874: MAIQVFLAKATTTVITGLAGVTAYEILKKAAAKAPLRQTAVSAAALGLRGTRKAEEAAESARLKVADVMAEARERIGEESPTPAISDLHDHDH
# UniProt P9WJ15: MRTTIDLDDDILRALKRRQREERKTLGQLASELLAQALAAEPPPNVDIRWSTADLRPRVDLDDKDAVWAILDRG
# UniProt P9WIP9: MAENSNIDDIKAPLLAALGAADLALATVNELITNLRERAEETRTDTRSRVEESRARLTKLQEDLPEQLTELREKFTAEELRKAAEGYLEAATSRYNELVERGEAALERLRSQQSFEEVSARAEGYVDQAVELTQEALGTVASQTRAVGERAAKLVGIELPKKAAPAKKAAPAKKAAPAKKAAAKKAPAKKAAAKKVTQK
# UniProt O05576: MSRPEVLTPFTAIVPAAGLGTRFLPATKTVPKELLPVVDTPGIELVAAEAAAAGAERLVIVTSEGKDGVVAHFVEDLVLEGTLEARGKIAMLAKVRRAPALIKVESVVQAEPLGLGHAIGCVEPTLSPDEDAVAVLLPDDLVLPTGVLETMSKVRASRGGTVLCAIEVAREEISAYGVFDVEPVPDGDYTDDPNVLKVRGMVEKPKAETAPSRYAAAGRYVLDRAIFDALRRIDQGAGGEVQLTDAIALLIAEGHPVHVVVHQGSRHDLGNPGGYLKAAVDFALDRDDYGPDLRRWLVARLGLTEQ
# UniProt P9WH95: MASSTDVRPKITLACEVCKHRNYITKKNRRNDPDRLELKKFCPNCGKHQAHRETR
# UniProt P9WNK5: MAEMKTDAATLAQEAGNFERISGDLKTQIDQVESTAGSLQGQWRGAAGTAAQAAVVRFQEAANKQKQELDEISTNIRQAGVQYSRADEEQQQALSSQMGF
# UniProt P9WGV3: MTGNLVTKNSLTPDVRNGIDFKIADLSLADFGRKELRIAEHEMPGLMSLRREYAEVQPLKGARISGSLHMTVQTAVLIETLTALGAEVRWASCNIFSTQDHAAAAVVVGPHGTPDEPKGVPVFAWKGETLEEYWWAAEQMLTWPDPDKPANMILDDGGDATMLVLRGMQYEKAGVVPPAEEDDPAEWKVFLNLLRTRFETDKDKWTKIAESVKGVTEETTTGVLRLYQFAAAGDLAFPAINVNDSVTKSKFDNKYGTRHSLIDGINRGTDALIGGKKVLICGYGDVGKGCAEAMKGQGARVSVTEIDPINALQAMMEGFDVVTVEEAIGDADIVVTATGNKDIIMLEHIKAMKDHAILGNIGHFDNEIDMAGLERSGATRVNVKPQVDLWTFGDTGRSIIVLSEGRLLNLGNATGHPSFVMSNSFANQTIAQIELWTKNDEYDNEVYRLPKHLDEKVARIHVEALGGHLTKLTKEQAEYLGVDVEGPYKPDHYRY
# UniProt Q79FE1: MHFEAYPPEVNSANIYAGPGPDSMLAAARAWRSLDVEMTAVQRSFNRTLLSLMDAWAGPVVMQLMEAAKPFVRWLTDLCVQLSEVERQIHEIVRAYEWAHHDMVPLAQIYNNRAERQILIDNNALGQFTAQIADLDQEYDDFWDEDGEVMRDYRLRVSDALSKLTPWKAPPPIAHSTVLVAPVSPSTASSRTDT
# UniProt P71622: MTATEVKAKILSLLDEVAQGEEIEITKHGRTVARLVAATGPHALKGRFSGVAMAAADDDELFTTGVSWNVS
# UniProt P9WJD9: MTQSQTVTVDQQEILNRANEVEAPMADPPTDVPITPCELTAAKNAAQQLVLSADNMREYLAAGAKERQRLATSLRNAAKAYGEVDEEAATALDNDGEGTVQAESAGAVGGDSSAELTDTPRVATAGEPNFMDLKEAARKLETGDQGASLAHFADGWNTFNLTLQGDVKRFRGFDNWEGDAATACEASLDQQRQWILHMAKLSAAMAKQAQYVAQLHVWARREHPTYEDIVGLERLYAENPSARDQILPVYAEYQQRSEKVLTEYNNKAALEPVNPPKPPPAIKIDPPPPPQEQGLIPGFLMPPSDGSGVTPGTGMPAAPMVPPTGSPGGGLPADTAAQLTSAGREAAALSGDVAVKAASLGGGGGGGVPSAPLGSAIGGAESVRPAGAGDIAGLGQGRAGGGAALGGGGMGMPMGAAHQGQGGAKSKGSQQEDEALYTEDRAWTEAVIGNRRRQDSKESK
# These are yes or no findings as the source states them, for the method shown. Binding seen in cells or lysates may run through a third protein. Here binding means that the protein was enriched with, or labelled near, the bait; the list need not be complete.
# B1: Rv1265 (protein, UniProt P9WM49 1-226)
# chain: MVLARPDAVFAPARNRCHVSLPVNAMSLKMKVCNHVIMRHHHMHGRRYGRPGGWQQAQQPDASGAAEWFAGRLPEDWFDGDPTVIVDREEITVIGKLPGLESPEEESAARASGRVSRFRDETRPERMTIADEAQNRYGRKVSWGVEVGGERILFTHIAVPVMTRLKQPERQVLDTLVDAGVARSRSDALAWSVKLVGEHTEEWLAKLRTAMSAVDDLRAQGPDLPA
# B2: Rv3357 (protein, UniProt P9WF25 1-91)
# chain: MSISASEARQRLFPLIEQVNTDHQPVRITSRAGDAVLMSADDYDAWQETVYLLRSPENARRLMEAVARDKAGHSAFTKSVDELREMAGGEE
# B3: Rv3788 (protein, UniProt P9WKW7 1-161)
# chain: MSEKVESKGLADAARDHLAAELARLRQRRDRLEVEVKNDRGMIGDHGDAAEAIQRADELAILGDRINELDRRLRTGPTPWSGSETLPGGTEVTLRFPDGEVVTMHVISVVEETPVGREAETLTARSPLGQALAGHQPGDTVTYSTPQGPNQVQLLAVKLPS
# B4: Cold shock protein A (protein, UniProt P9WP75 1-67)
# chain: MPQGTVKWFNAEKGFGFIAPEDGSADVFVHYTEIQGTGFRTLEENQKVEFEIGHSPKGPQATGVRSL
# B5: Elongation factor P (protein, UniProt P9WNM3 1-187)
# chain: MATTADFKNGLVLVIDGQLWTITEFQHVKPGKGPAFVRTKLKNVLSGKVVDKTFNAGVKVDTATVDRRDTTYLYRDGSDFVFMDSQDYEQHPLPEALVGDAARFLLEGMPVQVAFHNGVPLYIELPVTVELEVTHTEPGLQGDRSSAGTKPATLQTGAQINVPLFINTGDKLKVDSRDGSYLGRVNA
# B6: Rv3898c (protein, UniProt O05447 1-110)
# chain: MTGDQNPAPGPAPGVPIKVTPEILLQVLTTPPASGPAPFPAVPVDLPAPADIANGALFAAGNSGVPGDVESSGLEDLDRRAHAADAVQKFSANEADAAQQFQGVGAQAEA
# B7: Rv0121c (protein, UniProt O07171 1-144)
# chain: MGEFDPKLRFAQSPVARLATSTPDGTPHLVPVVFALGARRPAEATGADVIYTAVDAKRKTTQRLRRLANLEHNPRASVLVDSYADDWTQLWWVRADGVAAIHRDGEVMRAAYRLLRAKYAQYQSVPLNGPVIAIAVQRWASWHA
# B8: Arginine repressor (protein, UniProt P9WPY9 1-170)
# chain: MSRAKAAPVAGPEVAANRAGRQARIVAILSSAQVRSQNELAALLAAEGIEVTQATLSRDLEELGAVKLRGADGGTGIYVVPEDGSPVRGVSGGTDRMARLLGELLVSTDDSGNLAVLRTPPGAAHYLASAIDRAALPQVVGTIAGDDTILVVAREPTTGAQLAGMFENLR
# B9: Rv2114 (protein, UniProt O33249 1-207)
# chain: MSAPERVTGLSGQRYGEVLLVTPGEAGPQATVYNSFPLNDCPAELWSALDPQALATEHKAATALLNGPRYWLMNAIEKAPQGPPVTKTFGGIEMLQQATVLLSSMNPAPYTVSQVSRNTVFVFNAGEEVYELQDPKGQRWVMQTWSQVVDPNLSRADLPKLGERLNLPAGWSYHTRVLTSELRVDTTNREARVLQDDLTNSYSLVTA
# B10: Rv1566c (protein, UniProt O06624 29-230)
# chain: AADPATRPVDYQQITDVVIARGLSQRGVPFSWAGGGISGPTRGTGTGINTVGFDASGLIQYAYAGAGLKLPRSSGQMYKVGQKVLPQQARKGDLIFYGPEGTQSVALYLGKGQMLEVGDVVQVSPVRTNGMTPYLVRVLGTQPTPVQQAPVQPAPVQQAPVQQAPVQQAPVQQAPVQQAPVQQAPVQQAPVQPPPFGTARSR
# B11: ESX-1 secretion-associated protein EspJ (protein, UniProt P9WJC3 1-280)
# chain: MAEPLAVDPTGLSAAAAKLAGLVFPQPPAPIAVSGTDSVVAAINETMPSIESLVSDGLPGVKAALTRTASNMNAAADVYAKTDQSLGTSLSQYAFGSSGEGLAGVASVGGQPSQATQLLSTPVSQVTTQLGETAAELAPRVVATVPQLVQLAPHAVQMSQNASPIAQTISQTAQQAAQSAQGGSGPMPAQLASAEKPATEQAEPVHEVTNDDQGDQGDVQPAEVVAAARDEGAGASPGQQPGGGVPAQAMDTGAGARPAASPLAAPVDPSTPAPSTTTTL
# B12: Rv0250c (protein, UniProt O53672 1-97)
# chain: MSTTAELAELHDLVGGLRRCVTALKARFGDNPATRRIVIDADRILTDIELLDTDVSELDLERAAVPQPSEKIAIPDTEYDREFWRDVDDEGVGGHRY
# B13: Rv3474 (protein, UniProt P9WKH5 1-108)
# chain: MSGGSSRRYPPELRERAVRMVAEIRGQHDSEWAAISEVARLLGVGCAETVRKWVRQAQVDAGARPGTTTEESAELKRLRRDNAELRRANAILKTASAFFAAELDRPAR
# B14: Transcription elongation factor GreA (protein, UniProt P9WMT9 1-164)
# chain: MTDTQVTWLTQESHDRLKAELDQLIANRPVIAAEINDRREEGDLRENGGYHAAREEQGQQEARIRQLQDLLSNAKVGEAPKQSGVALPGSVVKVYYNGDKSDSETFLIATRQEGVSDGKLEVYSPNSPLGGALIDAKVGETRSYTVPNGSTVSVTLVSAEPYHS
# B15: Rv2857c (protein, UniProt I6Y1W3 1-258)
# chain: MMDLSQRLAGRVAVITGGGSGIGLAAGRRMRAEGATIVVGDVDVEAGGAAADELSGLFVPTDVCDEDAVNGLFDGAAETYGRIDIAFNNAGISPPEDNLIENTELAAWQRVQDVNLKSVYLCCRAALRHMVLAGKGSIVNTASFVAVMGSATSQISYTASKGGVLAMSRELGVQFARQGIRVNALCPGPVNTPLLQELFAKNPERAARRMVHVPLGRFAEPDEIAAAVAFLASDDASFITASTFLVDGGISSAYVTPL
# B16: Rv3046c (protein, UniProt I6YF16 1-124)
# chain: MTKTFSHPHFFRSVLRWLQVGYPEGVPGPDRVALLSLLRSTPLTEEQIGEVVRHFTENGSPAVADRVIDRDEIAEFISEVTHHDAGPENIQRVAGILAAAGWPLAGVDVGESESGSDRAPASQG
# B17: TB9.4 (protein, UniProt Q6MWZ8 1-90)
# chain: MEVKIGITDSPRELVFSSAQTPSEVEELVSNALRDDSGLLTLTDERGRRFLIHTARIAYVEIGVADARRVGFGVGVDAAAGSAGKVATSG
# B18: Rv0123 (protein, UniProt O07173 1-122)
# chain: MTKKPRNPADYVIGDDVEVSDVDLKQEEVYVDGERLTDERVEQMASESLRLAREREANLIPGGKSLSGGSAHSPAVQVVVSKATHAKLKELARSRKMSVSKLLRPVLDEFVQRETGRILPRR
# B19: Rv2302 (protein, UniProt P9WLD5 1-80)
# chain: MHAKVGDYLVVKGTTTERHDQHAEIIEVRSADGSPPYVVRWLVNGHETTVYPGSDAVVVTATEHAEAEKRAAARAGHAAT
# B20: Fumarate reductase flavoprotein subunit (protein, UniProt P9WN91 1-583)
# chain: MTAQHNIVVIGGGGAGLRAAIAIAETNPHLDVAIVSKVYPMRSHTVSAEGGAAAVTGDDDSLDEHAHDTVSGGDWLCDQDAVEAFVAEAPKELVQLEHWGCPWSRKPDGRVAVRPFGGMKKLRTWFAADKTGFHLLHTLFQRLLTYSDVMRYDEWFATTLLVDDGRVCGLVAIELATGRIETILADAVILCTGGCGRVFPFTTNANIKTGDGMALAFRAGAPLKDMEFVQYHPTGLPFTGILITEAARAEGGWLLNKDGYRYLQDYDLGKPTPEPRLRSMELGPRDRLSQAFVHEHNKGRTVDTPYGPVVYLDLRHLGADLIDAKLPFVRELCRDYQHIDPVVELVPVRPVVHYMMGGVHTDINGATTLPGLYAAGETACVSINGANRLGSNSLPELLVFGARAGRAAADYAARHQKSDRGPSSAVRAQARTEALRLERELSRHGQGGERIADIRADMQATLESAAGIYRDGPTLTKAVEEIRVLQERFATAGIDDHSRTFNTELTALLELSGMLDVALAIVESGLRREESRGAHQRTDFPNRDDEHFLAHTLVHRESDGTLRVGYLPVTITRWPPGERVYGR
# B21: Rv3559c (protein, UniProt I6YCF0 1-262)
# chain: MNLSVAPKEIAGHGLLDGKVVVVTAAAGTGIGSATARRALAEGADVVISDHHERRLGETAAELSALGLGRVEHVVCDVTSTAQVDALIDSTTARMGRLDVLVNNAGLGGQTPVADMTDDEWDRVLDVSLTSVFRATRAALRYFRDAPHGGVIVNNASVLGWRAQHSQSHYAAAKAGVMALTRCSAIEAAEYGVRINAVSPSIARHKFLDKTASAELLDRLAAGEAFGRAAEPWEVAATIAFLASDYSSYLTGEVISVSCQHP
# Target: PacL1 protein fused to an internal ALFA tag (M. tuberculosis) (UniProt P96874)
# Assay: proximity labelling
row,Molecule,binding
1,B1,binds

# Target: PacL1 protein fused to a C-terminal ALFA tag (M. tuberculosis) (UniProt P96874)
# Assay: proximity labelling
row,Molecule,binding
1,Rv3697A (from UniProt P9WJ15 1-74),binds
2,Iron-regulated heparin-binding hemagglutinin (from UniProt P9WIP9 1-199),binds
3,UTP--glucose-1-phosphate uridylyltransferase (from UniProt O05576),binds
4,Large ribosomal subunit protein bL33 (from UniProt P9WH95),binds
5,"EsxB (CFP-10), ESAT-6-like protein (from UniProt P9WNK5 1-100)",binds
6,Adenosylhomocysteinase (from UniProt P9WGV3 1-495),binds
7,PPE41 (from UniProt Q79FE1 1-194),binds
8,Rv2830c (from UniProt P71622 1-71),binds
9,Rv3881c (from UniProt P9WJD9 1-460),binds
10,B2,binds
11,B3,binds
12,B4,binds
13,B5,binds
14,B6,binds
15,B7,binds
16,B8,binds
17,B1,binds
18,B9,binds
19,B10,binds
20,B11,binds
21,B12,binds
22,B13,binds
23,B14,binds
24,B15,binds
25,B16,binds
26,B17,binds
27,B18,binds
28,B19,binds
29,B20,binds
30,B21,binds
